Experimental data: PubChem BioAssay AID1259300 (Sanger Institute, 2017)
Here is one part, drawn at random, of 794 reagents tested. 18 of all reagents (2.3%) count as active. 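Calls rest on knock-down alone, not drug synergy; depositor treated synergy scores above 0.15 as synergistic; drug doses alone had little viability effect.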 Unmarked entries are inactive. No viability above 1 is reported: the scale is capped. Not stated in the record: the amount of reagent, the time to read-out.

Test: 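Which knock-downs harm HCT15 alone or synergise with the drugs BYL719, cetuximab or trametinib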 (primary screen)
Cell system: HCT15 colorectal cancer cells
Reagents: siRNA pool against human genes
Conditions: anchor drug or DMSO vehicle added 24 h after seeding: BYL719 1 µM, cetuximab 5 µg/ml, trametinib 10 nM; drug doses chosen to barely affect viability alone
Detection: 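Cell viability after knock-down, as fraction of non-targeting pool wells averaged over replicates, plus robust z-score for knock-down alone; synergy score per drug (BYL719 1 µM, cetuximab 5 µg/ml, trametinib 10 nM)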
Scale: viability z-score, siRNA alone: higher = more viable cells after knock-down; viability vs non-targeting, siRNA alone: higher = more viable cells; synergy score with BYL719 and synergy score with cetuximab and synergy score with trametinib: higher = stronger synergy of knock-down with drug
Hit rule: 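Called active (essential) if viability z-score with knock-down alone falls below -3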
Meaning of the calls: active = essential: knock-down alone lowers viability (z below -3); inactive = no strong viability loss with knock-down alone

no.	gene	viability z-score, siRNA alone	viability vs non-targeting, siRNA alone	synergy score with BYL719	synergy score with cetuximab	synergy score with trametinib
1	ITPKA (GeneID 3706)	0.625	1	0.11	0.0778	0.0289
2	AKT1 (GeneID 207)	-0.404	0.925	0.101	0.154	-0.0653
3	MED12 (GeneID 9968)	-0.0436	0.951	0.274	0.0775	0.0946
4	CSNK1A1L (GeneID 122011)	0.457	0.988	0.0897	0.102	-0.109
5	ULK3 (GeneID 25989)	0.249	0.973	0.108	0.0109	-0.123
6	PDGFRA (GeneID 5156)	0.625	1	0.143	0.0583	0.035
7	NPR2 (GeneID 4882)	-3.04 (active)	0.733	0.0607	-0.242	-0.106
8	TPK1 (GeneID 27010)	-0.369	0.928	0.0363	0.0737	-0.063
9	PIP5K1C (GeneID 23396)	-0.119	0.946	0.136	0.104	0.0296
10	RBKS (GeneID 64080)	0.625	1	0.0601	0	-0.0661
11	FGFR2 (GeneID 2263)	0.625	1	0.0514	0.111	-0.0075
12	ZAP70 (GeneID 7535)	0.625	1	0.164	0.0567	0.108
13	NRAS (GeneID 4893)	0.625	1	0.0669	0	-0.021
14	EPHA3 (GeneID 2042)	0.625	1	0.164	0	0.0768
15	CKMT2 (GeneID 1160)	0.625	1	0.254	0.172	0.112
16	WNK2 (GeneID 65268)	0.625	1	0.13	0	-0.0984
17	CSNK2A1 (GeneID 1457)	0.564	0.996	0.101	0.0617	0.0401
18	PFKFB3 (GeneID 5209)	-2.06	0.804	0.102	0.00236	-0.0334
19	PKN1 (GeneID 5585)	0.625	1	0.12	0.0459	-0.0984
20	DYRK1B (GeneID 9149)	-0.186	0.941	-0.00781	-0.031	-0.152
21	AK5 (GeneID 26289)	0.625	1	0.0728	0.155	0.055
22	ROCK2 (GeneID 9475)	0.625	1	0.0529	0.00974	-0.043
23	CKMT1B (GeneID 1159)	-0.213	0.939	0.145	0.0444	0.0448
24	PRKCI (GeneID 5584)	-0.298	0.933	0.205	-0.0144	0.035
25	FXN (GeneID 2395)	0.625	1	0.0428	0.0208	-0.0984
26	MTOR (GeneID 2475)	0.407	0.984	0.314	0.148	0.0535
27	NME1 (GeneID 4830)	-0.656	0.907	-0.0303	-0.0932	-0.115
28	MAP3K3 (GeneID 4215)	-0.21	0.939	0.0987	0.0134	-0.0454
29	SPHK1 (GeneID 8877)	0.625	1	0.168	0.0697	0.139
30	HASPIN (GeneID 83903)	0.528	0.993	0.143	0.0808	0.0238
31	AK4 (GeneID 205)	0.122	0.963	0.0494	-0.0271	-0.131
32	KCNH8 (GeneID 131096)	0.625	1	0.205	0.00566	0.0519
33	CKS1B (GeneID 1163)	0.625	1	0.123	0.074	0.0149
34	CKS2 (GeneID 1164)	0.625	1	0.0619	0.00205	-0.0318
35	CDKN1B (GeneID 1027)	0.402	0.984	0.0975	0.00239	-0.0106
36	CEP290 (GeneID 80184)	-0.0678	0.95	0.0848	0.108	-0.11
37	LATS1 (GeneID 9113)	0.625	1	0.302	0.0866	0.0213
38	EPHA6 (GeneID 285220)	-0.726	0.902	0.403	0.254	0.106
39	GNE (GeneID 10020)	0.625	1	0.205	0.122	-0.0102
40	NME3 (GeneID 4832)	-0.0156	0.953	0.0512	-0.0466	-0.0559
41	DAPK1 (GeneID 1612)	-0.773	0.898	0.0562	0.0374	-0.164
42	CREBBP (GeneID 1387)	-1.98	0.81	0.283	0.0835	0.106
43	ROCK1 (GeneID 6093)	0.625	1	-0.0475	0	-0.0984
44	PKLR (GeneID 5313)	0.488	0.99	0.17	0.0436	-0.107
45	MSR1 (GeneID 4481)	0.344	0.98	0.162	0.161	-0.0517
46	CDK2 (GeneID 1017)	-0.28	0.934	0.097	-0.0319	-0.158
47	PRKD2 (GeneID 25865)	-0.725	0.902	0.0765	-0.0766	-0.0168
48	PRKAG3 (GeneID 53632)	-3.85 (active)	0.674	0.0082	-0.0658	-0.106
49	PRKCE (GeneID 5581)	-0.883	0.89	0.146	-0.11	-0.18
50	PRKCZ (GeneID 5590)	0.224	0.971	0.115	-0.0209	-0.0501
51	EGFR (GeneID 1956)	0.588	0.997	0.218	0.107	0.0731
52	MAPK10 (GeneID 5602)	0.625	1	0.0683	0.0878	-0.0984
53	MST1R (GeneID 4486)	0.266	0.974	0.0964	-0.0261	-0.0733
54	LRRK1 (GeneID 79705)	0.625	1	0.0341	0	0.0984
55	ACVR2A (GeneID 92)	0.625	1	0.123	0.0124	-0.0984
56	PRKCD (GeneID 5580)	0.0362	0.957	0.154	0.0711	-0.0221
57	SOX9 (GeneID 6662)	-1.39	0.854	0.114	-0.146	-0.0488
58	PKN2 (GeneID 5586)	0.153	0.966	0.133	0.0629	0.0293
59	SGK3 (GeneID 23678)	0.575	0.996	-0.0136	0.107	-0.102
60	FGR (GeneID 2268)	0.625	1	0.144	0.197	-0.0115
61	IPMK (GeneID 253430)	0.625	1	0.0998	0.065	-0.0984
62	PIP4K2A (GeneID 5305)	0.625	1	0.159	0.105	-0.0873
63	AK2 (GeneID 204)	0.625	1	0.0766	0	-0.0057
